Results reported in publication PMC11183095.
Residue numbers refer to the chain shown, from its start. No constants are given. Whether binding was seen depends on the method and setting. Binding seen in cells or lysates may run through a third protein. Some binding calls cover weakened binding; strength is not graded here. For part of these data: Where a sequence is shown, tags or fusion partners need not be part of it.

The chains behind the UniProt entries cited, without tags or fusion partners.
UniProt P14618: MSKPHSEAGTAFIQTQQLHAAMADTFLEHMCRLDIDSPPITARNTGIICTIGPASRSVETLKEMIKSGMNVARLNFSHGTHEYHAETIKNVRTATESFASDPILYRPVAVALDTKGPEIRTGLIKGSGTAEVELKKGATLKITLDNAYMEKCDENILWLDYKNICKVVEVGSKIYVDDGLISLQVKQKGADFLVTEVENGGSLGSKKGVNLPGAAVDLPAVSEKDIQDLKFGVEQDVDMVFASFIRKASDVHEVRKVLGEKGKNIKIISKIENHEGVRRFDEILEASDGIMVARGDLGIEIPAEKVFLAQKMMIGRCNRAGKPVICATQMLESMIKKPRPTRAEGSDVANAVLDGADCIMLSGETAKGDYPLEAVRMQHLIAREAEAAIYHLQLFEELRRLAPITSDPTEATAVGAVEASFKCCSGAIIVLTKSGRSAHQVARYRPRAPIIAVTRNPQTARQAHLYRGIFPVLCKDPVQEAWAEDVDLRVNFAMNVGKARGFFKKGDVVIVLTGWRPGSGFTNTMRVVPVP

Tests used:
[1] = biological target: Phosphoglycerate mutase 1 (PGAM1), endogenous (human (endogenous in A549)) (UniProt P18669); assay: co-IP; anti-PGAM1 immunoprecipitation from whole-cell lysates of untransformed cells (HBE-2, MCF-10A, GES-1, activated T and naive T cells), western blot
[2] = biological target: Phosphoglycerate mutase 1 (PGAM1), endogenous (human (endogenous in A549)) (UniProt P18669); assay: condition: only cells treated with TEPP46 (50 μM, 24 h) to stabilise the PKM2 tetramer; co-IP; anti-PGAM1 immunoprecipitation from A549 treated with TEPP46 (50 μM, 24 h) to stabilise the PKM2 tetramer, western blot
[3] = biological target: Flag-PGAM1 wild type (human) (UniProt P18669); assay: condition: only cells treated with Afatinib (1 μM, 3 h) before EGF; co-IP; anti-Flag immunoprecipitation from Flag-PGAM1-transfected, serum-starved A549 treated with Afatinib (1 μM, 3 h) before EGF (100 ng/mL, 30 min), western blot
[4] = biological target: Phosphoglycerate mutase 1 (PGAM1), endogenous (human (endogenous in A549)) (UniProt P18669); assay: co-IP; anti-PGAM1 immunoprecipitation from lung tumour tissues and adjacent normal tissues of ten patients, western blot
[5] = biological target: Phosphoglycerate mutase 1 (PGAM1), endogenous (human (endogenous in A549)) (UniProt P18669); assay: co-IP; anti-PGAM1 immunoprecipitation from whole-cell lysates of A549 (also H1299, MCF-7, MDA-MB-231, AGS, Jurkat tumour cells; with or without EGF), western blot; IgG as negative control
Flag-PGAM1 Y50E (human) = biological target: T1, Flag-PGAM1 Y50E (human) (UniProt P18669); assay: co-IP; anti-Flag immunoprecipitation from A549 transfected with Flag-PGAM1 or its mutants for 48 h, western blot for PKM2; with or without PKM2 or HA-Src overexpression, EGF, FGF1 or PDGFA
T1 sequence: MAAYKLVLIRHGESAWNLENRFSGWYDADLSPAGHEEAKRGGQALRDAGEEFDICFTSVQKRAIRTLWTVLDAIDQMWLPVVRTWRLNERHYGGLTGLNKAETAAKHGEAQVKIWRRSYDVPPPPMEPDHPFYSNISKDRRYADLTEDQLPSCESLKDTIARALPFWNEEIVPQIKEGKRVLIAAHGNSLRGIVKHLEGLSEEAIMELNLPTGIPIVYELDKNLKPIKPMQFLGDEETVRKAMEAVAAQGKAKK

Flag-PGAM1 Y142E (human) = biological target: T2, Flag-PGAM1 Y142E (human) (UniProt P18669); assay: as above
T2 sequence: T1 sequence with E50Y, Y142E

Flag-PGAM1 Y92F (human) = biological target: T3, Flag-PGAM1 Y92F (human) (UniProt P18669); assay: as above
T3 sequence: T1 sequence with E50Y, Y92F

Flag-PGAM1 Y50F (human) = biological target: T4, Flag-PGAM1 Y50F (human) (UniProt P18669); assay: as above
T4 sequence: T1 sequence with E50F

[6] = biological target: Flag-PGAM1 wild type (human) (UniProt P18669); assay: as above
Flag-PGAM1 Y26E (human) = biological target: T5, Flag-PGAM1 Y26E (human) (UniProt P18669); assay: as above
T5 sequence: T1 sequence with Y26E, E50Y

[7] = biological target: Flag-PGAM1 wild type (human) (UniProt P18669); assay: co-IP; Flag-PGAM1 immunoprecipitate from A549 held on anti-Flag agarose beads and treated with PTP1B (1 μg/μL) for 30 min, then eluted, western blot

- binding [1]: binds weakly
- binding [2]: no binding
- binding [3]: no binding
- binding [4]: binds
- binding [5]: binds
- binding (Flag-PGAM1 Y50E (human)): binds
- binding (Flag-PGAM1 Y142E (human)): binds
- binding (Flag-PGAM1 Y92F (human)): binds
- binding (Flag-PGAM1 Y50F (human)): binds
- binding [6]: binds
- binding (Flag-PGAM1 Y26E (human)): binds
- binding [7]: binds weakly
Substance: Pyruvate kinase M2 (PKM2), endogenous (from UniProt P14618 1-531) (enzyme)
